Experimental data from publication doi:10.1101/2025.10.03.680249.
Results are given in words; binding and its absence hold for the method and conditions named. In cells and extracts the contact can be indirect. Some results given as binding are weak or reduced against the parent protein; the word gives no strength. Sequences can lack the tags named with a protein.

Target: NPF6.2, BiFC fusion expressed in Nicotiana benthamiana (Arabidopsis) (UniProt Q9SZY4)
Assay: split reporter

binding: binds
B1: NPF6.2, BiFC fusion expressed in Nicotiana benthamiana (protein, UniProt Q9SZY4 1-577)
chain: MESKGSWTVADAVDYKGRPADKSKTGGWITAALILGIEVVERLSTMGIAVNLVTYLMETMHLPSSTSANIVTDFMGTSFLLCLLGGFLADSFLGRFKTIGIFSTIQALGTGALAVATKLPELRPPTCHHGEACIPATAFQMTILYVSLYLIALGTGGLKSSISGFGSDQFDDKDPKEKAHMAFFFNRFFFFISMGTLLAVTVLVYMQDEVGRSWAYGICTVSMAIAIVIFLCGTKRYRYKKSQGSPVVQIFQVIAAAFRKRKMELPQSIVYLYEDNPEGIRIEHTDQFHLLDKAAIVAEGDFEQTLDGVAIPNPWKLSSVTKVEEVKMMVRLLPIWATTIIFWTTYAQMITFSVEQASTMRRNIGSFKIPAGSLTVFFVAAILITLAVYDRAIMPFWKKWKGKPGFSSLQRIAIGLVLSTAGMAAAALVEQKRLSVAKSSSQKTLPISVFLLVPQFFLVGAGEAFIYTGQLDFFITQSPKGMKTMSTGLFLTTLSLGFFVSSFLVSIVKRVTSTSTDVGWLADNINHGRLDYFYWLLVILSGINFVVYIICALWFKPTKGKDSVEKENGKGFSVEDC
